Laboratory results reported in PMC7819943, “Rice protein-binding microarrays: a tool to detect cis-acting elements near promoter regions in rice”.
The other results are listed elsewhere or left out.

Protein sequences, listed by entry. Tags and fused reporters are not part of them.
UniProt Q0JBA9, entry or part of it: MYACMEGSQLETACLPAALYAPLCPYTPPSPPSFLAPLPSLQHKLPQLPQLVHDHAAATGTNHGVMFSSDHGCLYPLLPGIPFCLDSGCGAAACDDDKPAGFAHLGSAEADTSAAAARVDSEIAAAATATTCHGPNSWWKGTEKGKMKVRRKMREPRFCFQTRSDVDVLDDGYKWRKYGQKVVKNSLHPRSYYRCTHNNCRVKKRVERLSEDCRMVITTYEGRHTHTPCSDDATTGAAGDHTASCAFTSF

Each sequence was assayed against OsWRKY34 (Oryza sativa, UniProt Q0JBA9 1-250) (assay: protein-binding microarray (RPBM); PBS, 2% BSA, 51.3 ng/ul salmon testes DNA, 50 uM zinc acetate, 200 nM TF, 25 C, 1 h; high values mean tight binding). Settings: protein: recombinant; tags: N-terminal polyhistidine and DsRed monomer fusion (pET32a); label: CyDye5-dUTP incorporated in the synthesized complementary strand; 3' TTTTT single-stranded linker to array surface; dsDNA, one strand shown.
Outline: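 Binding signal is reported as fluorescence intensity per feature (arbitrary units) from an Axon 4000B scanner. Incubation used 200 nM of each Ni–NTA-purified, N-terminally polyhistidine- and DsRed-fused transcription factor from E. coli BL21-CodonPlus on a double-stranded custom Agilent array for 1 h at 25 °C, with 50 µM zinc acetate in the buffer, followed by washing.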

Sequence | binding signal
TGCCTCCACACTTTGCCCATTTCCCTAGTTTGTCCCTCTCCGGAGTCACCTAGTGCAG | 8080 fluorescence intensity (a.u.)
ACTTTAATCTCCCGTCTTATTTGAATTTTTTTTATGATTACGGAGTCACCTAGTGCAG | 8200 fluorescence intensity (a.u.)
TTCGCCTTTTCGTCTCCTATTATTACCGTTCTTCCTTTTACGGAGTCACCTAGTGCAG | 10500 fluorescence intensity (a.u.)
TACCAGGACTTGAGTTGATCCTTTTTCGCCGCTCACGCCGCGGAGTCACCTAGTGCAG | 8390 fluorescence intensity (a.u.)
TACCATATTCGTATCCGCATCCGCATGCAACTATCCGCATCGGAGTCACCTAGTGCAG | 8140 fluorescence intensity (a.u.)
TTAATCTACAAGCTAGTGTGAACCATGTATACCTTTCTTCCGGAGTCACCTAGTGCAG | 8710 fluorescence intensity (a.u.)
GCCGCCCCACCCACCACCACCACCACCGCGCCGCCACGCGCGGAGTCACCTAGTGCAG | 9300 fluorescence intensity (a.u.)
TTCTGCAGGGCGCATTGAATGCCATATTTTGAAATTTCTGCGGAGTCACCTAGTGCAG | 8850 fluorescence intensity (a.u.)
TATTATATATTCTTTGGGAAAGCGTTGGATTAGTTTTTCTCGGAGTCACCTAGTGCAG | 8780 fluorescence intensity (a.u.)
GTCGTGTGGCCATATATCTCTTCGAGCTGGTGGGGCTTGACGGAGTCACCTAGTGCAG | 8530 fluorescence intensity (a.u.)
CTCCATCTTTTTTAGCGTGTGTTAGAGGGAAACACGTTTGCGGAGTCACCTAGTGCAG | 8430 fluorescence intensity (a.u.)
CACTTTACTTAGGCTCTGTTCGTTTCCTGGAGTTCCCAACCGGAGTCACCTAGTGCAG | 9570 fluorescence intensity (a.u.)
TCCGTATTTTAATGTATGACGCTGTTGACTTTCGACCTACCGGAGTCACCTAGTGCAG | 13900 fluorescence intensity (a.u.)
GCTACTATCTATACTATTATCAGCGTCACGTGAGCTCGCTCGGAGTCACCTAGTGCAG | 8120 fluorescence intensity (a.u.)
TCGCATATCTTGACTTTTTTACCCTAAAATTTGTGTCTGGCGGAGTCACCTAGTGCAG | 9200 fluorescence intensity (a.u.)
AATCCACTCCCACCACCAAGCGCGAGCTCGATTATTTTTTCGGAGTCACCTAGTGCAG | 10500 fluorescence intensity (a.u.)
CCCCAGCACCAACTTTGGTCCACTCCACATTCCAATCCTCCGGAGTCACCTAGTGCAG | 10500 fluorescence intensity (a.u.)
GCTTCTTCTTGTATGTATACAGCTATCTATATTTTCTTAGCGGAGTCACCTAGTGCAG | 10200 fluorescence intensity (a.u.)
CGCTATGTCAACTGGGCTTTGTTTGGGTTTTGCATTTTCTCGGAGTCACCTAGTGCAG | 13300 fluorescence intensity (a.u.)
ACGATTTTATCTCATCCGTTTGGCCCTGCTGCTGCTGTGCCGGAGTCACCTAGTGCAG | 8170 fluorescence intensity (a.u.)
GATTCATCGCCAGCGTCGCCGTATCTTCCTCGACTACACTCGGAGTCACCTAGTGCAG | 10300 fluorescence intensity (a.u.)

Retrieved one by one from the list above, two records:
Sequence | binding signal
TACCATATTCGTATCCGCATCCGCATGCAACTATCCGCATCGGAGTCACCTAGTGCAG | 8140 fluorescence intensity (a.u.)
AATCCACTCCCACCACCAAGCGCGAGCTCGATTATTTTTTCGGAGTCACCTAGTGCAG | 10500 fluorescence intensity (a.u.)

Copied from above (2 entries):
Sequence | binding signal
AATCCACTCCCACCACCAAGCGCGAGCTCGATTATTTTTTCGGAGTCACCTAGTGCAG | 10500 fluorescence intensity (a.u.)
CCCCAGCACCAACTTTGGTCCACTCCACATTCCAATCCTCCGGAGTCACCTAGTGCAG | 10500 fluorescence intensity (a.u.)

Later entries.

Sequence | binding signal
TCGCGCGCTTGGCTCTTCTCGATCTCTCTCTCGGCTTCTCCGGAGTCACCTAGTGCAG | 11200 fluorescence intensity (a.u.)
TGCCTGCCTGCCTGCCTCATGTACATATAGCTACCCGAACCGGAGTCACCTAGTGCAG | 8820 fluorescence intensity (a.u.)
GGATTTCACAGCTTCTAGCTTCTAATTCATTTTCTGGATTCGGAGTCACCTAGTGCAG | 10200 fluorescence intensity (a.u.)
ACATTGCTGAGACTGTACCACCACCACTGCATGATATACACGGAGTCACCTAGTGCAG | 10700 fluorescence intensity (a.u.)
TAATGGTTTCTACTCGCGCACAACTCCGCTTCTTTTATAACGGAGTCACCTAGTGCAG | 8280 fluorescence intensity (a.u.)
TAGCTTCAACCCCAGCATCCCTGACCTTCTTTTCTTCTGTCGGAGTCACCTAGTGCAG | 8770 fluorescence intensity (a.u.)
ACCTACTCTCTTCTCCTGCAGTCCAGCTCTCGGTTCCTTGCGGAGTCACCTAGTGCAG | 8180 fluorescence intensity (a.u.)
CGCTAGGATCGCCTTTTTTCCGCTGCTGCTACTTTTGTTTCGGAGTCACCTAGTGCAG | 11100 fluorescence intensity (a.u.)
TTAGGGCTTTCTCCTCGTGCTCCCTGCGATTGCGCCGCCCCGGAGTCACCTAGTGCAG | 8270 fluorescence intensity (a.u.)
GACCTCGCCGTCGCCGTCGCCGCCGCCGCCGCCGCCATGGCGGAGTCACCTAGTGCAG | 9900 fluorescence intensity (a.u.)
AGGACCCTTATTTAGTAGTATAATTCTTTCCGTCCCAATTCGGAGTCACCTAGTGCAG | 9400 fluorescence intensity (a.u.)
CCGGCGCCGTCCTTCACCGCCTAGCTCGATTTGCTTTTCACGGAGTCACCTAGTGCAG | 8410 fluorescence intensity (a.u.)
CACCAAGCAGTCCCCTGTGTTCATCTTCTGAAGTCTGATTCGGAGTCACCTAGTGCAG | 8360 fluorescence intensity (a.u.)
ATCTTCCTTGTACACACATGCACATCTCTCACTCAACTCACGGAGTCACCTAGTGCAG | 8710 fluorescence intensity (a.u.)
ATTTGCTTTTCTTCTTAGTTCTTACTTCCATTGCTTTAGGCGGAGTCACCTAGTGCAG | 9000 fluorescence intensity (a.u.)
TACACCGGTAAATTCGGTCATTTCTCTCGGTTAACCGAACCGGAGTCACCTAGTGCAG | 9790 fluorescence intensity (a.u.)
TTGGTGTGCATGTAGCAGGAGGGGCTGATACATTTATGATCGGAGTCACCTAGTGCAG | 8940 fluorescence intensity (a.u.)
TTCGACTTCCTCGTCTCGTTGAGCGCGACTTCGGCTTGATCGGAGTCACCTAGTGCAG | 10300 fluorescence intensity (a.u.)
GGTGTTTGACCCCAAGACTCCACTCCATCTCTCTCCATGTCGGAGTCACCTAGTGCAG | 11600 fluorescence intensity (a.u.)
CTTATTATTTCTCTCTTCTTACTCTATCGCCGCTAGAGAACGGAGTCACCTAGTGCAG | 8500 fluorescence intensity (a.u.)
GGTTGGGTACGGGAAAAATATAATATATACCGGAAGCAGACGGAGTCACCTAGTGCAG | 8140 fluorescence intensity (a.u.)

Sequence | binding signal
CCAATTTAACTCTGTTTTTGTCACTTTGCTTATTTGACTCCGGAGTCACCTAGTGCAG | 12200 fluorescence intensity (a.u.)
CCCACCGTAGACTAGTCAATCCATCCATCCATCCGCCCACCGGAGTCACCTAGTGCAG | 8720 fluorescence intensity (a.u.)
ACGGCTCCACGATATATCTCTCGCTTGATAGCTTTTCCAACGGAGTCACCTAGTGCAG | 9160 fluorescence intensity (a.u.)
GATATGCACAGAGCAGGTAGTGTTTGACAACTTTGTTTCTCGGAGTCACCTAGTGCAG | 9490 fluorescence intensity (a.u.)
CTTTAGTTAAAGTCAAAGTGCTTCAAGTTTGACTAAGTTTCGGAGTCACCTAGTGCAG | 9150 fluorescence intensity (a.u.)
TCACTGCCTCACCAACCAGTCACCGCCCTTATCCTTTTTCCGGAGTCACCTAGTGCAG | 10900 fluorescence intensity (a.u.)
ACTCTCATTCCTTTTCTAATTTTGGATTTTATTTTATTTTCGGAGTCACCTAGTGCAG | 15000 fluorescence intensity (a.u.)
AATGCGGTGTGTGTTATACTCTAGTTAGTCATATGATCCACGGAGTCACCTAGTGCAG | 9330 fluorescence intensity (a.u.)
GAGGGAGTATTATCTTCTGAACATATGTTTGACCATTGGACGGAGTCACCTAGTGCAG | 8940 fluorescence intensity (a.u.)
CTGAGTTCCCATTAATTGAAGTTTCCATTTCTGTTATTTTCGGAGTCACCTAGTGCAG | 9680 fluorescence intensity (a.u.)
TTCGCATCTCAACCAATCACAATCTTCTACCACTTAATTCCGGAGTCACCTAGTGCAG | 8750 fluorescence intensity (a.u.)
ATACCATCATCCTATATTTTATTAATATCTTACAACTAACCGGAGTCACCTAGTGCAG | 8870 fluorescence intensity (a.u.)
CAGTGTACGAGCTGGTGTGTGTTTCTCTCCGTTTCGTTTCCGGAGTCACCTAGTGCAG | 11700 fluorescence intensity (a.u.)
CCAGCTTCAAGCCTTCAAACATGGGGTTTGCTACAGTGTACGGAGTCACCTAGTGCAG | 8240 fluorescence intensity (a.u.)
CTATCTCTGCTTGAACATACCACTACCTCAGTATTCTCTACGGAGTCACCTAGTGCAG | 8270 fluorescence intensity (a.u.)
ATGTGGCTAGAGTTGGGGTTTAGTGTCAGTTGTTAGGGATCGGAGTCACCTAGTGCAG | 11200 fluorescence intensity (a.u.)
CCCAACGCTAATCGTTACCACGCGCACACACGCTTCACTTCGGAGTCACCTAGTGCAG | 8340 fluorescence intensity (a.u.)
ACCCCATCTACCAGCAGCTTCCTCTCTATGACTATATATACGGAGTCACCTAGTGCAG | 12800 fluorescence intensity (a.u.)
GGGAGAGATCTGTTGTTGTTGTGAAACCCCTCTATCCTTCCGGAGTCACCTAGTGCAG | 9460 fluorescence intensity (a.u.)
CTTTACATCTATCAGGTTTGTCAGCCACCATGTTAACACCCGGAGTCACCTAGTGCAG | 11000 fluorescence intensity (a.u.)
CAAACAAAATGGGTTTCTTCTTACGGTTGTGGGCTTTTTCCGGAGTCACCTAGTGCAG | 17400 fluorescence intensity (a.u.)

Sequence | binding signal
CGTCGTCGTCGTCGTCGTCACAGGCAAGAAGAGGAGAAGGCGGAGTCACCTAGTGCAG | 8240 fluorescence intensity (a.u.)
TCTCTCTCTCCTCTTCAATTCTCTCTCTACCTCCGCTGCGCGGAGTCACCTAGTGCAG | 11300 fluorescence intensity (a.u.)
ATGACCTATCTCGTGTTATGCGCTGGGGTGGAGGTCTGTCCGGAGTCACCTAGTGCAG | 9620 fluorescence intensity (a.u.)
CTTAGAGCTAACACGCTCACCTTTTATACTTGCTCTAACCCGGAGTCACCTAGTGCAG | 10600 fluorescence intensity (a.u.)
CCTTAGTCAGCCTCTGCTTCTGCTCCGTGCTCGCCGGCGCCGGAGTCACCTAGTGCAG | 12600 fluorescence intensity (a.u.)
TTTAAGTTGCATAGTCTGGTCATTTTATGCACTGAATGGTCGGAGTCACCTAGTGCAG | 8940 fluorescence intensity (a.u.)
TCTGTACTGCTTTGGGATTATATTTACACTGGTTTTACAACGGAGTCACCTAGTGCAG | 8630 fluorescence intensity (a.u.)
CCCAAAGACTTGGCACATATGCATGCAACCAACTAATTTTCGGAGTCACCTAGTGCAG | 8270 fluorescence intensity (a.u.)
GGGATGCTTCTTTTGTGTGATATCTTTACATGTCGGTCTACGGAGTCACCTAGTGCAG | 9840 fluorescence intensity (a.u.)
CACATGTTCTCTCTCTCTCTCTCTCTCTCTCTCTCTCTCTCGGAGTCACCTAGTGCAG | 10100 fluorescence intensity (a.u.)
AACTTAAATCACAACTCAGTTTCAGTACTTGAATTTCAGACGGAGTCACCTAGTGCAG | 8300 fluorescence intensity (a.u.)
GTAACACTGTGGCTGCTTTTCTCCTGCTTACCTTTTCTTTCGGAGTCACCTAGTGCAG | 9690 fluorescence intensity (a.u.)
CAGGGAGTGGGGTCTTTTTGGTAGGATGATTGAATCCAACCGGAGTCACCTAGTGCAG | 9000 fluorescence intensity (a.u.)
CGGACAGCCAGCCACCACCGTTGCTGGCTACTCACTCTCACGGAGTCACCTAGTGCAG | 8430 fluorescence intensity (a.u.)
GCTCCAATCTCTAACCTGGGAGGGTTGCCCTTTATTACCTCGGAGTCACCTAGTGCAG | 8090 fluorescence intensity (a.u.)
TGTGTCTGTTTTGACTGCTCGTGGTTGGTTTCTTGTTTAGCGGAGTCACCTAGTGCAG | 9170 fluorescence intensity (a.u.)
TCTCTAGACCTGTAAGCCCTGAACTCACCTCATCCATTTTCGGAGTCACCTAGTGCAG | 9240 fluorescence intensity (a.u.)
GTCTGTGATAATTTTGTTCTCTTCTTGTTGGGGTCTTGGGCGGAGTCACCTAGTGCAG | 10200 fluorescence intensity (a.u.)
TGGAGCGAATTTCAGATTGGGTTGTTTGCGGGGCTAAGTTCGGAGTCACCTAGTGCAG | 11800 fluorescence intensity (a.u.)
ACAACGAAGCCTCTCTGGTCAACTCTCACCCGCACGTACGCGGAGTCACCTAGTGCAG | 11700 fluorescence intensity (a.u.)
TTCTCTTCTGCGCTCTCGGCTACTTGTACTCCCGAGATGCCGGAGTCACCTAGTGCAG | 9170 fluorescence intensity (a.u.)

Part of the list above, in CSV form:
Sequence,binding signal
ATGACCTATCTCGTGTTATGCGCTGGGGTGGAGGTCTGTCCGGAGTCACCTAGTGCAG,9620 fluorescence intensity (a.u.)
TTTAAGTTGCATAGTCTGGTCATTTTATGCACTGAATGGTCGGAGTCACCTAGTGCAG,8940 fluorescence intensity (a.u.)
